Experimental data from publication PMC5435354.
Results are given in words; binding and its absence hold for the method and conditions named. In cells and extracts the contact can be indirect. Some results given as binding are weak or reduced against the parent protein; the word gives no strength. Where a sequence is shown, tags or fusion partners need not be part of it.

How the values were obtained:
[1] = biological target: T1, GFP-EDS1 (Enhanced disease susceptibility 1, GFP-tagged) (UniProt Q9SU72); assay: co-IP
T1 sequence: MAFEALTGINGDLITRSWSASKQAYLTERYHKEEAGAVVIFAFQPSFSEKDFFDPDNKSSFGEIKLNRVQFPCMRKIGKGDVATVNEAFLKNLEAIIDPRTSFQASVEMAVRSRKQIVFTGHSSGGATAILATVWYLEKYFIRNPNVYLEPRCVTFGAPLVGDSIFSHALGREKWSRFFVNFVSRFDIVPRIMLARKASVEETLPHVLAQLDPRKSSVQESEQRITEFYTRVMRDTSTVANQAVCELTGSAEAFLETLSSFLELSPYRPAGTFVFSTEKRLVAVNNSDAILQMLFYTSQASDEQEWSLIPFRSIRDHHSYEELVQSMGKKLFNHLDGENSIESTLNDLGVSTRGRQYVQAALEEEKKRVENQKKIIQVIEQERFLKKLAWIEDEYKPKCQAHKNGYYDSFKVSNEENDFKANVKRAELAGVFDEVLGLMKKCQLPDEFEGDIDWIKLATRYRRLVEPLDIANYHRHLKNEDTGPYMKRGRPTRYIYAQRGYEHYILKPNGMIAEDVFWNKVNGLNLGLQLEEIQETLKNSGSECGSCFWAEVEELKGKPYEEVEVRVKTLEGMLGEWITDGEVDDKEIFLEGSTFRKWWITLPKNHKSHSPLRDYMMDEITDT

PAD4-GFP = biological target: T2, PAD4-GFP (UniProt Q9S745); assay: co-IP
T2 sequence: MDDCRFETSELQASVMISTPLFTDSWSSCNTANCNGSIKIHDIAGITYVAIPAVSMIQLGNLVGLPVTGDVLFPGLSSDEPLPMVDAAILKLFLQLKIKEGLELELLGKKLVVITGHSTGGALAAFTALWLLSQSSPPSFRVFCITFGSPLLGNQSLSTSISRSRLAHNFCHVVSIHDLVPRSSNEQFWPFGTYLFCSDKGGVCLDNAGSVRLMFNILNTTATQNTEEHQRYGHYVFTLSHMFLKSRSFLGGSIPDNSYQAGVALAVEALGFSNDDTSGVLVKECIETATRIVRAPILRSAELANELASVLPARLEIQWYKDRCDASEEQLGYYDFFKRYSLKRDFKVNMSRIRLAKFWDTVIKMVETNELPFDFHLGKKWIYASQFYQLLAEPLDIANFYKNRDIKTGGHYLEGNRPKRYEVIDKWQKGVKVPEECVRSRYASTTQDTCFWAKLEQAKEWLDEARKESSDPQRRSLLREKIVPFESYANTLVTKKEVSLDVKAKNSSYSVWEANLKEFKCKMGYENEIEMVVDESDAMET

B1: RPS4-HF (RPS4 with 3xHis-6xFLAG tag) (protein, UniProt Q9XGM3 1-1217)
chain: METSSISTVEDKPPQHQVFINFRGADLRRRFVSHLVTALKLNNINVFIDDYEDRGQPLDVLLKRIEESKIVLAIFSGNYTESVWCVRELEKIKDCTDEGTLVAIPIFYKLEPSTVRDLKGKFGDRFRSMAKGDERKKKWKEAFNLIPNIMGIIIDKKSVESEKVNEIVKAVKTALTGIPPEGSHNAVVGALGNSNAGTSSGDKKHETFGNEQRLKDLEEKLDRDKYKGTRIIGVVGMPGIGKTTLLKELYKTWQGKFSRHALIDQIRVKSKHLELDRLPQMLLGELSKLNHPHVDNLKDPYSQLHERKVLVVLDDVSKREQIDALREILDWIKEGKEGSRVVIATSDMSLTNGLVDDTYMVQNLNHRDSLQLFHYHAFIDDQANPQKKDFMKLSEGFVHYARGHPLALKVLGGELNKKSMDHWNSKMKKLAQSPSPNIVSVFQVSYDELTTAQKDAFLDIACFRSQDKDYVESLLASSDLGSAEAMSAVKSLTDKFLINTCDGRVEMHDLLYKFSREVDLKASNQDGSRQRRLWLHQHIIKGGIINVLQNKMKAANVRGIFLDLSEVEDETSLDRDHFINMGNLRYLKFYNSHCPQECKTNNKINIPDKLKLPLKEVRCLHWLKFPLETLPNDFNPINLVDLKLPYSEMEQLWEGDKDTPCLRWVDLNHSSKLCSLSGLSKAEKLQRLNLEGCTTLKAFPHDMKKMKMLAFLNLKGCTSLESLPEMNLISLKTLTLSGCSTFKEFPLISDNIETLYLDGTAISQLPMNMEKLQRLVVLNMKDCKMLEEIPGRVGELKALQELILSDCLNLKIFPEIDISFLNILLLDGTAIEVMPQLPSVQYLCLSRNAKISCLPVGISQLSQLKWLDLKYCTSLTSVPEFPPNLQCLDAHGCSSLKTVSKPLARIMPTEQNHSTFIFTNCENLEQAAKEEITSYAQRKCQLLSYARKRYNGGLVSESLFSTCFPGCEVPSWFCHETVGSELEVKLLPHWHDKKLAGIALCAVVSCLDPQDQVSRLSVTCTFKVKDEDKSWVAYTCPVGSWTRHGGGKDKIELDHVFIGYTSCPHTIKCHEEGNSDECNPTEASLKFTVTGGTSENGKYKVLKCGLSLVYAKDKDKNSALETKYDMLIGKSFQETSEGVDGRVKKTKGKYVMPVEKNFQETTEGVDGRVNKKKKTRMDNGRPKKKQRSGRDDNQTRMQVELQEGNINSVIMHTVKNF
binding [1]: binds

B2: RPS4-HA (Resistance to Pseudomonas syringae 4, HA-tagged) (protein, UniProt Q9XGM3 1-1217)
chain: B1 chain
binding [1]: binds

B3: Myc-EDS1 (N-terminally Myc-tagged EDS1) (protein, UniProt Q9SU72 1-623)
chain: T1 sequence
binding (PAD4-GFP): binds

B4: EDS1-Myc (C-terminally Myc-tagged EDS1) (protein, UniProt Q9SU72 1-623)
chain: T1 sequence
binding (PAD4-GFP): binds
